From article PMC9670795
Read-outs that look alike come from different tables or passages of the source. Results are given in words; binding and its absence hold for the method and conditions named. In cells and extracts the contact can be indirect. These calls come from enrichment with a bait or labelling near it, and not all partners need be listed. Tags and fused reporters may be left off the sequences shown.

Sequences of proteins named here, by UniProt entry; tags and fusion partners are left off.
UniProt A0A143ZVW7: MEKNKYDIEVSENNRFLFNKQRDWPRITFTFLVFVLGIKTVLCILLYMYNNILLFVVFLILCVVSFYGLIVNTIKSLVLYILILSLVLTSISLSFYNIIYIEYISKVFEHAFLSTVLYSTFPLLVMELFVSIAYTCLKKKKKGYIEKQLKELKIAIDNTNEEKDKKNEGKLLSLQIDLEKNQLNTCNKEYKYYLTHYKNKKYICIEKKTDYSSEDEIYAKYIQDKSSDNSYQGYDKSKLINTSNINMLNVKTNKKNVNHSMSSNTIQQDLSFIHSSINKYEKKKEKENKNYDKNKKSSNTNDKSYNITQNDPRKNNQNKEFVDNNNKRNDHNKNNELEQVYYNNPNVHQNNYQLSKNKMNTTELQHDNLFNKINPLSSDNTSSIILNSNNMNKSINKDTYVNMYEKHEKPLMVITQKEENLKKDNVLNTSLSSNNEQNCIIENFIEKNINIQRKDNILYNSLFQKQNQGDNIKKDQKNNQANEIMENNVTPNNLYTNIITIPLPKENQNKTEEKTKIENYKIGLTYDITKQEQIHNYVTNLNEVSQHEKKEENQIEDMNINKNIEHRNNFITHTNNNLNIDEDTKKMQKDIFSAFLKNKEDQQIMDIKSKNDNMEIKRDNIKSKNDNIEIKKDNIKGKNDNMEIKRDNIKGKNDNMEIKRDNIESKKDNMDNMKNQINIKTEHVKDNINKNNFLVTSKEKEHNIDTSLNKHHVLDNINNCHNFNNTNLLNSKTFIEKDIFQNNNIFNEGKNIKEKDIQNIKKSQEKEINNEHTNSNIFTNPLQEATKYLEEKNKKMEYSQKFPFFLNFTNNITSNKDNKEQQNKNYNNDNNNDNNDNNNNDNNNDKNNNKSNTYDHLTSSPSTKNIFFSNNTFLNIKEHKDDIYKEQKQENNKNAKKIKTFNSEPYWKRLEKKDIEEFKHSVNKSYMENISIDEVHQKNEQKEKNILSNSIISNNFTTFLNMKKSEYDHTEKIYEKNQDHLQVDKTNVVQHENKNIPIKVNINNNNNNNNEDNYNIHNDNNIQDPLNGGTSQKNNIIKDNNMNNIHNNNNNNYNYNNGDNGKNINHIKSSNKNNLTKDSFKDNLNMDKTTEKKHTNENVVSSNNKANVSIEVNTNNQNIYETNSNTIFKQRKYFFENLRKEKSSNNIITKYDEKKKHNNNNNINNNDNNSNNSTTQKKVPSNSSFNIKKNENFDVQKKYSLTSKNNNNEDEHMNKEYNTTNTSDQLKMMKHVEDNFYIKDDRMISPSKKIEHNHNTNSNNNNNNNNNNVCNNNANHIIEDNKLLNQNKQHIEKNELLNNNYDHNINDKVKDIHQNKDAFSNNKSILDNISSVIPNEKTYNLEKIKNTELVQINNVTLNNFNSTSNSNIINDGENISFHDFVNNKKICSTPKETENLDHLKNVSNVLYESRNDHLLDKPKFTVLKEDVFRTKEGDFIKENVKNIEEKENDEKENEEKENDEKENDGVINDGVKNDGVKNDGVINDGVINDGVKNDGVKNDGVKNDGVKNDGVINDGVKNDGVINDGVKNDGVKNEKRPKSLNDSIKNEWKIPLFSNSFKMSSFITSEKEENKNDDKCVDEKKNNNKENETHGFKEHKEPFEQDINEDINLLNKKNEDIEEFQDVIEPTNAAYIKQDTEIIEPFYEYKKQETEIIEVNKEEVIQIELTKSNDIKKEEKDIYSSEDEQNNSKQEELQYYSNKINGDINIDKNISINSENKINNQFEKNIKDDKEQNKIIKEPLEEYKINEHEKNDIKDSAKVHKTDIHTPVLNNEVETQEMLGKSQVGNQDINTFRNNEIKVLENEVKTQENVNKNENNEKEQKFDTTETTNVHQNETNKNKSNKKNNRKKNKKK
UniProt Q8IIS9: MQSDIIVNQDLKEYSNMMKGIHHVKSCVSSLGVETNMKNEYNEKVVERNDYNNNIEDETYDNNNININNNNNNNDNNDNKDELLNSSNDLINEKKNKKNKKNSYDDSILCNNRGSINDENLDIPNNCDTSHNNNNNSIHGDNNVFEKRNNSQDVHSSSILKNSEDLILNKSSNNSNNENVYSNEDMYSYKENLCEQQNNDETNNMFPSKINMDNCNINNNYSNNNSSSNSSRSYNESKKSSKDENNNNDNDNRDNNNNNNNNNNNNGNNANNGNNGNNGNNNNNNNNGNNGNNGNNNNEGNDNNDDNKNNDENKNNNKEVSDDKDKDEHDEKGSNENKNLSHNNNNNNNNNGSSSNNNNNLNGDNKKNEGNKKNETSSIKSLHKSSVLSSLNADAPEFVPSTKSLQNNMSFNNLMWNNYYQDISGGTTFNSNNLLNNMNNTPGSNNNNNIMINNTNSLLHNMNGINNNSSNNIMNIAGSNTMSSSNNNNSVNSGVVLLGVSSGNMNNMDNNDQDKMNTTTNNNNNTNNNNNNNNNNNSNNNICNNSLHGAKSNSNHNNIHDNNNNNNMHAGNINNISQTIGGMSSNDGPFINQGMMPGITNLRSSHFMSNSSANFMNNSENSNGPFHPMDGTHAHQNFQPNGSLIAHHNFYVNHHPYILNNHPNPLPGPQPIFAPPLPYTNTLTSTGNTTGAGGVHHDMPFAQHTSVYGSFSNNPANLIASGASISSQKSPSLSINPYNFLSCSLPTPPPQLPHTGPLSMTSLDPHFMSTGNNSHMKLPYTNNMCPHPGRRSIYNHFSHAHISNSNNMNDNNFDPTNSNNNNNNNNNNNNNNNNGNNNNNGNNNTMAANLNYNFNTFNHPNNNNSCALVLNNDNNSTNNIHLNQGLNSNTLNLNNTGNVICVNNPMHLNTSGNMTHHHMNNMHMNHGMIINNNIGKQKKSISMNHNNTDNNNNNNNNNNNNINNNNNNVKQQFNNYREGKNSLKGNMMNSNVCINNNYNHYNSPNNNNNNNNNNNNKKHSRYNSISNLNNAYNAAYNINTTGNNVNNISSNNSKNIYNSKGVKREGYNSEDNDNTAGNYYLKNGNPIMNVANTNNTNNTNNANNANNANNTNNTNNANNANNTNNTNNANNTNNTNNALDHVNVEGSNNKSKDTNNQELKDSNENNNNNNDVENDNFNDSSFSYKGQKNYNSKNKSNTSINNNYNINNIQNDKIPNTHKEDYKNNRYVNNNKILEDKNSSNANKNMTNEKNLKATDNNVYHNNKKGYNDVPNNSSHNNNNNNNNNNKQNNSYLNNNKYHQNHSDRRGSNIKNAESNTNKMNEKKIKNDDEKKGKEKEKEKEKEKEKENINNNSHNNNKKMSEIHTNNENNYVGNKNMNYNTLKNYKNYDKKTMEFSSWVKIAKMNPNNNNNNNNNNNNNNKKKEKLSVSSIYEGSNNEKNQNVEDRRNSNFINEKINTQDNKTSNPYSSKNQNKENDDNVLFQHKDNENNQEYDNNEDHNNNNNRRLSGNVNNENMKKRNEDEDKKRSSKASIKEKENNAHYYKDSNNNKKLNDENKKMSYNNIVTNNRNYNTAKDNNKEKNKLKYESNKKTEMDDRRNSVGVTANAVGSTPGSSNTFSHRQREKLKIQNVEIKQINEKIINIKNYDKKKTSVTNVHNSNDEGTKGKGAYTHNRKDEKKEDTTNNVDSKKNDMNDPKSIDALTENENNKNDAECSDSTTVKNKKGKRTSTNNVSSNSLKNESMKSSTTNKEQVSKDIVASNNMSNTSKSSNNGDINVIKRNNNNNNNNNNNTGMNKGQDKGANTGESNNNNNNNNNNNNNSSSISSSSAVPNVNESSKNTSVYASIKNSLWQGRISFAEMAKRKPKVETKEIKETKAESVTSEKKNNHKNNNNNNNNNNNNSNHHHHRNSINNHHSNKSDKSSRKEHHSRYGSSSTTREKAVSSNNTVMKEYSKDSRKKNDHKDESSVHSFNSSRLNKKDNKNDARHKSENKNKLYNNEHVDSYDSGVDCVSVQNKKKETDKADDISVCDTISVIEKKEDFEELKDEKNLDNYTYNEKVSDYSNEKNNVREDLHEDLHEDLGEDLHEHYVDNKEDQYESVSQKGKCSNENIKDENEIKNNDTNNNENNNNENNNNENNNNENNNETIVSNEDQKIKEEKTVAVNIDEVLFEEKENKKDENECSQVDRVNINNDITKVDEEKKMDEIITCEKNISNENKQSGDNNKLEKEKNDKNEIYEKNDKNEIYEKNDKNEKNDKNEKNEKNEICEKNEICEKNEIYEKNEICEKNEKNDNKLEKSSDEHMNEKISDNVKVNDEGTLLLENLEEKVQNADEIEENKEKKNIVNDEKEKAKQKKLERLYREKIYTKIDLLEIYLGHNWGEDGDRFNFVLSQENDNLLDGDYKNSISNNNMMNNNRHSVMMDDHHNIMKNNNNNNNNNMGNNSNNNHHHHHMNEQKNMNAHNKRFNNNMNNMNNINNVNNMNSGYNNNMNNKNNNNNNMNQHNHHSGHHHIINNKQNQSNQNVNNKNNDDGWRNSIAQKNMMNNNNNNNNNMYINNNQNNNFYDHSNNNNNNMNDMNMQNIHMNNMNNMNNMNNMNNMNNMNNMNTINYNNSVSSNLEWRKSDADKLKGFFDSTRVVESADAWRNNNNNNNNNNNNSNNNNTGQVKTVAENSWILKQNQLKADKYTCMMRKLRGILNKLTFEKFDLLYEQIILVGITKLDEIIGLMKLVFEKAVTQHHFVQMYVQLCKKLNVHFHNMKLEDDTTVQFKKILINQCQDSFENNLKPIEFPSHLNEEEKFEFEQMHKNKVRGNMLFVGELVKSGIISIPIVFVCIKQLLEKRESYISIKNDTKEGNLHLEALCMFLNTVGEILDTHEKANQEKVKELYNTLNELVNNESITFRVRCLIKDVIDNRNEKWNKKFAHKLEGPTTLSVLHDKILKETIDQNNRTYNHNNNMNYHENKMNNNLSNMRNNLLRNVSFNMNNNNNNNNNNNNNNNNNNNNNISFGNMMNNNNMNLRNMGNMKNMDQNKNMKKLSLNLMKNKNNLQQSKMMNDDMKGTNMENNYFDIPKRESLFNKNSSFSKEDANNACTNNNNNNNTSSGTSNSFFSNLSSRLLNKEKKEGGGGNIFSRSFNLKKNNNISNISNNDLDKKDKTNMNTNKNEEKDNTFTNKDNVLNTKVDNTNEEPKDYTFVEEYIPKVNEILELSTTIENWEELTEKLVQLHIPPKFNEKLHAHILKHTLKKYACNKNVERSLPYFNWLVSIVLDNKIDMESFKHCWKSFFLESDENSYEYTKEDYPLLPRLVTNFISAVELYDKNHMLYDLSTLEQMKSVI

T1: Pf-DDX5 (ATP-dependent RNA helicase DDX5, Pf3D7_1445900), tagged with 2xFKBP and GFP (P. falciparum 3D7) (UniProt Q8IL13)
T1 sequence: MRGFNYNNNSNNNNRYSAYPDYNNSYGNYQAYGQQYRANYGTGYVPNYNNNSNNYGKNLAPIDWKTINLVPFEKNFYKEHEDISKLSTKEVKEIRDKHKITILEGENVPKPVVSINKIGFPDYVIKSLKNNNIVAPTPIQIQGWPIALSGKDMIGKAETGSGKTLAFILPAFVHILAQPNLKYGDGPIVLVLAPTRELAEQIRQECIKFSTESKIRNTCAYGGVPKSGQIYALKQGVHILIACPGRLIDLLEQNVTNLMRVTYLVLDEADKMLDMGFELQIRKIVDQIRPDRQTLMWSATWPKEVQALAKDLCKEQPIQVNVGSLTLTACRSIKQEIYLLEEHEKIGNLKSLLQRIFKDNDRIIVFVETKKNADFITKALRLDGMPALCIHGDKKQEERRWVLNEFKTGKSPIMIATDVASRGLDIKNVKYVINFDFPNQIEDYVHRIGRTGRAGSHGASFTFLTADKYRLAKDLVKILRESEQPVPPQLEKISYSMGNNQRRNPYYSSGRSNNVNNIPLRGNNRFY

B1: chromatin remodeling protein (Pf3D7_1104200.1) (protein, UniProt Q8IIW0 1-1426)
chain: MFRNVRDYFKSSNDVNEEKKNDVGSVHMDENTENYDKESNGFVHRDFNNGINKEDKDYEELDLKKLNVSSNDITKEGNNMNENMMNRKLNSSVEDGNDNNHDKNVHRNIGNDTHVSYDDKRKSYLDNNEENSEQMNDNMKKRKLNEISYDNNEEDEFRNKKDDSMEMNDKEKGSTNMSTINDNNNNHNDDSNNHNDDSNNHNDDSNNHNDDSNNHNDDNNNHNEDNNNHNDDNNNHNDDNNYNSEEKPNYLQEKLEQLLAQTKRYTEKLAGQRLKMNAQMKSSKKGRCLLTEKEEDFMLLKDANEEDEAIILKQPMNINGTMKPYQLEGLNWLYQLYRFKINGILADEMGLGKTLQTISLLCYLRFNKNIKKKSIIICPRSTLDNWYEEIKKWCTPMKAFKYYGNKDQRKELNRNLLHSDFDVLLTTYEIVIKDKSALYDIDWFFLVIDEAHRIKNEKSVLSSSVRFLRSENRLLITGTPLHNNLKELWSLLNFLMPKIFDNSEEFDNLFNISKISTNDNKQSEIITQLHTILKPFMLRRLKVEVEQSLPPKREIYIFVGMSKLQKKLYSDILSKNIDVLNAMTGSKNQMLNILMQLRKCCNHPYLFDGIEEPPYIEGNHLIETSGKMSLLDKLLPRLKKENSRVLLFSQMTRLLDIIDDYCRWKNYPYLRIDGSTPGDERQVRINQFNEPNSKYFIFLLSTRAGGIGINLTTADIVILFDSDYNPQMDIQAMDRAHRIGQKKRVIVYRFVTQNSVEEKIVERAAKKLKLDSLIIQKGKLNLNSAKENNKQELHDILNFGAPEVYKTQDISSISDEDIDIILADAEKRTIEIEKKLKNLENIFDLTNISLDGGLNMYNDLEKEASEESTDEEDSSGSGEETILEGSGNNDIVEENGVKKKKKKKKNINKIRRTIKKFLKNNKKNMTFLDLGERKSKWKVMNTACGRTNKKKMVLHGWRAEARGGHDFQFFNVEKLDELEKIEDKWNNYMINQEKINVLIEAQNEEKDYEKIVTFNEFLDKHAKNIYQIITLINPSLFDEHKDTKEEELLKMGTHSDVNSNDKDYKRSSFMSTDYNMKTTYLNNINSNNNNNNNNINDNVGTSINTIDDQQYFKKKILSLFESGKKLQMIKFKDRNIKNCYTQVANFIKKNFPEKINNNDTNNNKSTTLKNKKLKKGKQTKNVNVEKDIASVDIEKIKLQKQELMKQGFAKWNKAEFNKLMSGLIIYGTNEVEYIYEKYFSNSKKSMEDIKAYLTVFFRKYDQIKGGVRLFDKIKRSDLQKKIIEEENDMITEFVEKQLSEGVDSIEKLQLPSNLRYDFMEKREVLNITEEVKTENEENVLSNEELAYYDRENKILLWLLYQQGVVQIKNIHILTPYYWPEAYNFFKYATTPFENVEYRCRLIVDAIAELYAKKENVPLNNKDKRRI
B2: protein with unknown function Pf3D7_0819600.1 (protein, UniProt Q8IB31 1-277)
chain: MYVTTGTNDILLTINDYVNKETASYQLTDISNNTLISEIIEKIKVLKNYTYSSTDLVLYFARVECKLSEKLSTYNKSNRKTIKLELYLSKLITINVRTLQSCGTGTSRCIPFWSFCFRQNIKIKIIDTCEVRVLKQKIYNLTDESTSIPVENIVLLYKGAPLNNFLTLKESELIDNCRIDYFVPLCYIYKKKKEESDEDEDENEEKLKEHTKSEDKKVDTQQNENVKSENVNNENVKNENVNNENVKNENVNNENVNNENVNIENVKNDNNDNAKKC
B3: pre-mRNA–processing factor (Pf3D7_1110200.1) (protein, UniProt Q8IIR0 1-1329)
chain: MDLTSLKNEMTKNIKNDVFKNMSINNNKVKYEPFGKPPPGYIPGKGRGVTGFSGGVSRDDTTDDKDKNDYSDFNYDEFHGYSESLFKDTEYDEEDKEADEIYDKIDSLMDIRRKSRRENKLKEEISKMRATKPTITQQFGDLKKNLANVTIEEWESIPTVLQYSSKQKQKKVQKNYLPAPDSLIMSRINESNIHLNFNNSASSQSGHKTPIGLGYQSSLGVQTPLGLRTPYGLQNSLSGLKTPLSGLQNSLSGLKTPLSGLQNSLSGLKTPLSGLQNSLSGLKTPLSGLQTPYMRNPSSLFGMDTPLINNNIKSNMSISGLNTPFTLSGYNTPLSASNVSGYNTPLFNNTHKLSLNDLGEARGTVLSVKLDELIDNVEGQTVIDPKGYLTNLNASSLINDADIADINKARSLLKSVISTNPKHGPGWIAAARIEELAQRKDKAKEIIMKGCVVCSKNEDIWLEAVRLEEKLSEVKIILAKAIKHIPTSVKLWLEAYKKEKNVDDKRKVLRKAIECIPNSVKLWKEAISLENENNAYILLKRAVECIPQSIEMWIALARLCTYTEAQKVLNEARKKIPTSAEIWINASQLEEKQGNIKMVDIIIKRCIENLSSKNVIFDRDKWIKFAEECEQSKFTHTCESIIRNTMHIGVETLNKKRIYKQDAQNCIHNKSIHTARTLYNEALKIFKTKKSLWLALANLELTHGKREDVDEVLHRAVQSCPHSSVLWLMLAKQKWLNNEIDKAREILAESFIHNQNTEEISLAAIKLERENNEFDRARFLLKKSRVQCNTPKIWMQSVQLERLLRNYKEAKMLAHEALKIHKHFDKLYMIAGQIELEMYKYSNDTNININITSHKTYIKNGCDDTKSDDSKDKNINTKRTTSPKHYTTTNNNDDDANNDSSCTSNNFHNKQNGDNKNINVNNKKEEFINITNDPYKNAQNIYEEGLKYCASSINLWICAIDLQIEKKNYTGARALTEKAKIKIKYLNSFNNNSHILKSKEIIETNEQNYDTQDDEYNNLNKNMDGSKSVNNTTASNISKSKNELEKKSSVNNNAYIKIIENYDLLWLKLIEIELCCNNKNLNPIISEALKECPSSGILWSKAIELENKNLQNSKSVSAFNHCGNNAYVILTVAKLFWVNFKIQKARKWFYRVINLNPHFGDGWATFLAFEIDQQNEINQKDIINKCIKAEPNRGYLWNKITKRVENWRLKYPQKLYKYIKDIYPHVLNKKISDPIWNIITDENADTSFLLTNQENDKEKKDQGNESVDDEKDYEKETNNNVEEDPEKDSKEQGKRKSKEKILNEKDTTKNKRKDISTNEDEKDRKKKKK
B4: protein with unknown function Pf3D7_1455300.1 (protein, UniProt Q8IKS5 1-610)
chain: MDKCRNSSRKYKLSAGDSTFGKPTVRGSVTNDNLSDDGEIEFEGWVEFVTKNGNDDTNLSQEKKKRHGRNRNHTVSLCNIAKDDIVFNKSRKRDKQSRRDSKKGNEMNTDYMYSNNNNNIYANYVFKQPNEISNGSILYTLRNNNNNNNYNNNNNVVTPLYINNQTKTNDNLINILSPNYVDPAPPIVLKNQQVLPQLYIRQPPTVIVTNEPRPPLVINPPPANIIFKNKSPQPIYVNSTRPNIIIKNDPPVVQNPINMDTTPVQLDMPTENITINKETINYPYVMNIKKDSFLDNRNVYLKGSVSSTNASVSPTNVIYVESNNNNNNMNDINQQNIPNFYMMNNNQTPHLHQTTNAYATIPPINNHQIQTQPTNTVQYIQPNYEQVITQVDQNRNLFNQQLVGSTVMQNMTPQGVNTLNYPATINTVCVPQTISNTNNTTSQQVQYIPQTQAYAPYNNVQNTTIYERNYVPQIAQNTMTNNVVQQYVPSTTTMVQENVQNTPSSQYRILVPNNDNIQSPNIIRHYNNISNTKNNVNKAIVQPTYNSSEILPSCSPSGCASRNKVTHVQNVRRNSYINPHSHSMHECPKKVQIIARPMHDQNLRTYSLCR
B5: nucleosome assembly protein (Pf3D7_0919000) (protein, UniProt Q8I2W3 1-269)
chain: MKRDRSENSVENTDPKHTKIENDDPLMPFMQDFEDIQKDIEQLDIKCAHEQMNIQKQYDEKKKPLFEKRDEIIQKIPGFWANTLRKHPALSDIVPEDIDILNHLVKLDLKDNMDNNGSYKITFIFGEKAKEFMEPLTLVKHVTFDNNQEKVVECTRIKWKEGKNPIAAVTHNRSDLDNEIPKWSIFEWFTTDELQDKPDVGELIRREIWHNPLSYYLGLEEFDEFDDDFDEEFDDDDDDDDDDDDDDDDDDKDDDLDGDDDGNNDDNDD

What was measured:
[1] = biological target: T1, Pf-DDX5 (ATP-dependent RNA helicase DDX5, Pf3D7_1445900), tagged with 2xFKBP and GFP (P. falciparum 3D7); experiment: affinity purification with mass spectrometry; GFP-Trap beads on nuclear extracts of 3% formaldehyde cross-linked parasites at 18 hpi; Benzonase in the lysis buffer; 150 mM NaCl, 4°C overnight; on-bead digestion, label-free quantitative LC-MS/MS against GFP-tagged Pf3D7_1423700 as control; n = 5
[2] = biological target: T1, Pf-DDX5 (ATP-dependent RNA helicase DDX5, Pf3D7_1445900), tagged with 2xFKBP and GFP (P. falciparum 3D7); experiment: as above; remark: listed apart in the source

Molecule | binding [1] | binding [2]
protein with unknown functions Pf3D7_0704300 (from UniProt A0A143ZVW7 1-1852) | binds | –
polyadenylate-binding protein (Pf3D7_1107300.1) (from UniProt Q8IIS9 1-3334) | binds | –
PHAX domain–containing protein Pf3D7_1021900 (from UniProt Q8IJI4 1-2290) | binds | –
histone variant H2A.Z | binds | –
B1 | – | binds
B2 | – | binds
B3 | – | binds
B4 | – | binds
B5 | – | binds
